Experimental data reported in publication PMC8850458, “The AUTOTAC chemical biology platform for targeted protein degradation via the autophagy-lysosome system” (Nature Communications, 2022).
Results are given in words; binding and its absence hold for the method and conditions named. Binding seen in cells or lysates may run through a third protein.

Biological target: T1, 12-mer V-BiP peptide (V-…-biotin)
T1 sequence (peptide, biotin, C-terminal): VEEDKKEDVGTK
Assay: pull-down; biotinylated peptide on streptavidin agarose; 200 ug HEK293T extract in binding buffer (0.05% Tween-20, 10% glycerol, 0.2 M KCl, 20 mM HEPES pH 7.9), 4 C, 2 h; immunoblot; only the target purified

p62/Sequestosome-1/SQSTM1 (from UniProt Q13501 1-440)
binding: no binding
